Assay results taken from paper PMC2949799.
These are yes or no findings as the source states them, for the method shown. In cells and extracts the contact can be indirect. Some entries that bind do so weakly or less than the wild type. Tags and fused reporters may be left off the sequences shown. One block for each binder: values may come before it.

By UniProt entry, the sequences of proteins in these tests, tags left out.
UniProt Q8NHY2: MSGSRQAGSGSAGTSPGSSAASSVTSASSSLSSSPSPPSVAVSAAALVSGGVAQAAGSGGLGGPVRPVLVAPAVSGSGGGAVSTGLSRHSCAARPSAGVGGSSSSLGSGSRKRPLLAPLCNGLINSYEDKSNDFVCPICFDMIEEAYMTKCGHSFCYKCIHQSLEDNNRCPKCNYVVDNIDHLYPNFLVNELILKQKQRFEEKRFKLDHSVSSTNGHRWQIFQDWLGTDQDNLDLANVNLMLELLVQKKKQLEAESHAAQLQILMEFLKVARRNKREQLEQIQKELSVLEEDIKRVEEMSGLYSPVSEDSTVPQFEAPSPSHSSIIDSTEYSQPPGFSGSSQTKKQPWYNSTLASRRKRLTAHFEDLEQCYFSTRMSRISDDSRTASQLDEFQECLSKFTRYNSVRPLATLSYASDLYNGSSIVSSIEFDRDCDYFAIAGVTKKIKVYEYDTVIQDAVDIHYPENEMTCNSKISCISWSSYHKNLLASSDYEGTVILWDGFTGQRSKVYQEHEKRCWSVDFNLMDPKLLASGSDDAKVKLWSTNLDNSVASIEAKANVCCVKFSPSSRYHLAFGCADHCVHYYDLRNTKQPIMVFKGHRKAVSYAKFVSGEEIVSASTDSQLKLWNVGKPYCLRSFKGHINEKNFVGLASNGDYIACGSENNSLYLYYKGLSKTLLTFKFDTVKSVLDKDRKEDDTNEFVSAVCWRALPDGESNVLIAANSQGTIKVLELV

Target: Myc-COP1 (WT [wild type]) (UniProt Q8NHY2)
Assay: co-IP; 293T cells cotransfected with Myc-COP1 (WT or S387A) and Flag-14-3-3σ constructs; lysates immunoprecipitated with anti-Myc, immunoblotted with anti-Flag; proteasome inhibitors before harvesting (Figure 3A)

binding: no binding
B1: C-terminal Flag-14-3-3σ (153-248) (domain or fragment, UniProt P31947 153-248)
chain: EAMDISKKEMPPTNPIRLGLALNFSVFHYEIANSPEEAISLAKTTFDEAMADLHTLSEDSYKDSTLIMQLLRDNLTLWTADNAGEEGGEAPQEPQS

binding: binds
B2: N-terminal Flag-14-3-3σ (1-161) (domain or fragment, UniProt P31947 1-161)
chain: MERASLIQKAKLAEQAERYEDMAAFMKGAVEKGEELSCEERNLLSVAYKNVVGGQRAAWRVLSSIEQKSNEEGSEEKGPEVREYREKVETELQGVCDTVLGLLDSHLIKEAGDAESRVFYLKMKGDYYRYLAEVATGDDKKRIIDSARSAYQEAMDISKKE
